Data reported in PubChem BioAssay AID1347072 (National Center for Advancing Translational Sciences (NCATS), 2019).
Screen size: about 44,000 compounds; fewer than 10 were called active. The shares of active, inactive and inconclusive entries below differ from those in the screen. The call rests on the fitted dose curve; in most records, active means well fitted curve in the direction sought with a large enough effect; inconclusive means small, poorly fitted or top-dose-only effect, or another doubt; inactive means no such curve, though single readings can be large or run the other way. Potencies of inconclusive entries are doubtful fits and often do not repeat.

Protein sequences, listed by entry. Tags and fused reporters are not part of them. Lines headed by an entry give the natural chain unless they say otherwise; changes in a name come on top.
UniProt P51570: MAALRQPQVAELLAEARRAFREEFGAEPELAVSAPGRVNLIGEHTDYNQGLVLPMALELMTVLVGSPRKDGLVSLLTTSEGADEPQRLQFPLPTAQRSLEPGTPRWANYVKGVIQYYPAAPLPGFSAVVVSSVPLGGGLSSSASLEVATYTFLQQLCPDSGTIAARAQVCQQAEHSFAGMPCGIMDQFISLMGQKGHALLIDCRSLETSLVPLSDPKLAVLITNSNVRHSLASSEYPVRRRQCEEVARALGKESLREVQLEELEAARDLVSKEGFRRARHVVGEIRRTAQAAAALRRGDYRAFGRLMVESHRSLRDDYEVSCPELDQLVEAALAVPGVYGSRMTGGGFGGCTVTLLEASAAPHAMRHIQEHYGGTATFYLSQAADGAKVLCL

Target: Galactokinase (Homo sapiens) (UniProt P51570)
Test: qHTS Assay for Inhibitors of Human Galactokinase (GALK): NCGC Sytravon Library Screen;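 on activity, negative = inhibition: plate controls were full GALK reaction for no effect and reaction lacking GALK for full effect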
Settings: recombinant GALK, Kinase-Glo ATP luminescence, 1 h; series mostly up to 57.5 µM; activity, negative = inhibition: at the top concentration
Method in brief: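 Compounds were pinned into ATP buffer, then GALK-galactose mix was added (final 5 nM enzyme, 35 uM ATP, 100 uM galactose, pH 8.0). After 1 h at room temperature, Kinase-Glo Plus was added and luminescence read.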

Potency, inconclusive:
Cc1ccc(NC(=O)c2c(C)nc3sc(C(=O)Nc4ccc(F)cc4)c(N)c3c2-c2ccccc2Cl)c(C)c1 44.7 µM [inhibitor, partial curve, poor fit]
CC(C)Oc1ccc(CNC(=O)c2ccc(Cn3c(=O)c4cccn4c4cccnc43)cc2)cc1 0.891 µM [inhibitor, full curve, poor fit]
COc1ccccc1/C=C/C(=O)Nc1nc2n(n1)C(c1ccc(F)cc1)C=C(c1ccccc1)N2 (stereo unspecified) 0.141 µM [inhibitor, full curve, poor fit]
COc1cc(NC(=O)Cc2noc3ccccc23)cc(OC)c1OC 6.31 µM [inhibitor, partial curve, poor fit]
CCc1ccc2ncc3c(-c4ccc(C)cc4)nn(CC(=O)NCc4ccccc4)c3c2c1 0.316 µM [inhibitor, full curve, poor fit]
COc1ccc(Cn2ccc3nc(C)c(C(=O)NCc4ccc(SC)cc4)cc3c2=O)cc1 0.158 µM [inhibitor, full curve, poor fit]
CCN1CCN(Cc2nc3cc(NC(=O)c4cccc([N+](=O)[O-])c4)ccc3n2CC)CC1 28.2 µM [inhibitor, partial curve, poor fit]
COc1ccccc1NC(=O)C1=C(C)Nc2nc(-c3ccco3)nn2C1c1cccc(C)c1 (stereo unspecified) 3.16 µM [inhibitor, full curve, poor fit]
CCOc1cccc2sc(NC(=O)c3ccc(S(=O)(=O)N4CCCCC4)cc3)nc12 39.8 µM [inhibitor, partial curve, poor fit]
CCOc1ccccc1NC(=O)CSc1nc2ccccc2nc1Cc1ccc(C)cc1 39.8 µM [inhibitor, partial curve, poor fit]
Cc1cccc(C(=O)N2CCNC(=O)C2CC(=O)Nc2ccc(F)cc2)c1 (stereo unspecified) 39.8 µM [inhibitor, partial curve, poor fit]
Cc1cc(NS(=O)(=O)c2ccc(NC(=O)COc3ccc(Cl)cc3)cc2)nc(C)n1 44.7 µM [inhibitor, partial curve, poor fit]
CCOc1cc(C2C(C(=O)OC)=C(C)NC3=C2C(=O)c2ccccc23)ccc1O (stereo unspecified) 10 µM [inhibitor, partial curve, poor fit]
O=C(Nc1cccc(C(=O)N2CCCCC2)c1)c1nsc2ccccc12 39.8 µM [inhibitor, partial curve, poor fit]
Cc1cc(Nc2cccc(C(F)(F)F)c2)nc2ccc(NC(=O)c3ccc(N(C)C)cc3)cc12 2.82 µM [inhibitor, partial curve, poor fit]
COc1ccc(-c2nn3c(=O)cc(CN4CCN(C(=O)Nc5ccc(C)c(Cl)c5)CC4)nc3s2)cc1 5.62 µM [inhibitor, full curve, poor fit]
COCCCNC(=O)CSc1c2c(nc3ccc(Cl)cc13)CCCC2 31.6 µM [inhibitor, partial curve, poor fit]
O=C(Cn1cc(SCc2cccc(F)c2)c2ccccc21)N1CCOCC1 1.58 µM [inhibitor, full curve, poor fit]
CCc1ccc(S(=O)(=O)c2nnn3c2nc(NC2CCCCCC2)c2sccc23)cc1 0.501 µM [inhibitor, partial curve, poor fit]
CCOc1cc(CNc2ccc(O)cc2)ccc1OCc1ccc(Cl)cc1 39.8 µM [inhibitor, single point]
Cc1nc2ccc(S(=O)(=O)N(C)CC(=O)Nc3ccc(Br)c(C)c3)cc2s1 25.1 µM [inhibitor, partial curve, poor fit]
CC(C)NS(=O)(=O)c1ccc2nc(NC(=O)c3cncc(Br)c3)sc2c1 39.8 µM [inhibitor, partial curve, poor fit]
Cn1nc(-c2ccc(OCC(=O)Nc3ccccc3)cc2)c2ccccc2c1=O 39.8 µM [inhibitor, single point]
CN(c1nnc(NC(=O)Nc2ccc(Br)cc2)s1)C1CCCCC1 31.6 µM [inhibitor, partial curve, poor fit]
CC(=O)N1c2ccc(S(=O)(=O)NCC3CCC(C(=O)Nc4cccc(F)c4)CC3)cc2CC1C (stereo unspecified) 0.447 µM [inhibitor, full curve, poor fit]
Cc1ccc(-n2ncc3c(NCCc4ccccc4)ncnc32)cc1Cl 25.1 µM [inhibitor, partial curve, poor fit]
CCn1c(Oc2ccc(F)cc2F)nc2c1c(=O)n(C)c(=O)n2C 7.08 µM [inhibitor, partial curve, poor fit]
COc1ccccc1CCNC(=O)c1cc2c(=O)n3cccc(C)c3nc2n1C 7.08 µM [inhibitor, partial curve, poor fit]
COc1ccc(C(=O)NCC(c2cccnc2)N2CCc3ccccc3C2)cc1 (stereo unspecified) 7.08 µM [inhibitor, partial curve, poor fit]
Cn1ccc2cc(S(=O)(=O)N3CCN(C(=O)Nc4cccc(F)c4)CC3)ccc21 0.158 µM [inhibitor, full curve, poor fit]
CCN(C(=O)c1cc(S(=O)(=O)N2CCCCC2)c[nH]1)c1ccc(OC)cc1 1 µM [inhibitor, partial curve, poor fit]
Cc1cccc(NC(=O)c2cc(S(=O)(=O)N3CCCCC3)c[nH]2)c1C 10 µM [inhibitor, full curve, poor fit]
CS(=O)(=O)c1ccc2nc(NC(=O)CS(=O)(=O)c3ccc(Cl)cc3)sc2c1 44.7 µM [inhibitor, partial curve, poor fit]
Cc1ccc(NC(=O)Cn2nnnc2-c2ccccc2N)cc1 39.8 µM [inhibitor, partial curve, poor fit]
CCc1ccc(S(=O)(=O)c2nnn3c2nc(Nc2ccc(NC(C)=O)cc2)c2sccc23)cc1 0.501 µM [inhibitor, full curve, poor fit]
CC(Sc1nnc2ccc3ccccc3n12)C(=O)Nc1ccc(Cl)cc1 (stereo unspecified) 0.199 µM [inhibitor, full curve, poor fit]
CCc1ccc(OC(C)C(=O)N2CCC(c3nc4ccccc4o3)CC2)cc1 (stereo unspecified) 3.98 µM [inhibitor, full curve, poor fit]
Cc1ccc(NC(=O)Cn2nc(C(=O)Nc3ccc(C)cc3)ccc2=O)cc1 44.7 µM [inhibitor, partial curve, poor fit]
COc1ccc(/C=C/c2nc(C#N)c(NCc3ccc(F)cc3)o2)cc1OC 39.8 µM [inhibitor, partial curve, poor fit]
CCOC(=O)c1sc(NC(=O)C2c3ccccc3Oc3ccccc32)c(C#N)c1C 39.8 µM [inhibitor, single point]

An excerpt from the list above:
Potency, inconclusive:
Cc1ccc(NC(=O)c2c(C)nc3sc(C(=O)Nc4ccc(F)cc4)c(N)c3c2-c2ccccc2Cl)c(C)c1 44.7 µM [inhibitor, partial curve, poor fit]
CC(C)Oc1ccc(CNC(=O)c2ccc(Cn3c(=O)c4cccn4c4cccnc43)cc2)cc1 0.891 µM [inhibitor, full curve, poor fit]

Next part.

activity, negative = inhibition, inactive:
COc1ccc(NC(=O)c2ccc(NC(=O)CCS(=O)(=O)c3cccs3)cc2)cc1Cl 2.4%
COc1cccc(CSc2nc3n(n2)C(c2ccc(C(=O)O)cc2)C(C(=O)Nc2ccccc2)=C(C)N3)c1 (stereo unspecified) -0.935%
CCc1ccc(NC(=O)Cn2c(C(=O)OC)cc3oc(C)cc32)cc1 5.3%
CCOc1ccc(CC(=O)NCCc2sc(-c3cccc(F)c3)nc2C)cc1 1.24%
O=C(CSc1nccn1Cc1ccco1)Nc1cccc(F)c1 -2.01%
COc1cc2nc(SCc3cccc(Cl)c3)n3nc(CCn4nc(C)cc4C)nc3c2cc1OC 7.01%
Cc1nn(-c2ccccc2)c2c1N(CCCC(=O)NCc1ccc(OC(C)C)cc1)C(=O)CS2 -0.862%
Cn1c(NCc2ccccc2F)nc2ccccc21 7.89%
COc1ccc(OC)c(CCNC(=O)CS(=O)(=O)Cc2nc(-c3cccc(Cl)c3)oc2C)c1 6.96%
CCOC(=O)c1cc(-c2ccc(OC)cc2)n(CCC(=O)NCc2ccc(OC)cc2)c1C 0.516%
CCc1ccc(Sc2cc(C(=O)NCc3cccc(OC)c3)c3ccccc3n2)cc1 -4.43%
